The list shows a part of the results. Further columns of the screen follow, without active or inactive calls. Most of these compounds were active or inconclusive in the main read-out, so they are no random draw. Potencies come from curve fits of mixed quality, noted in brackets.
Assay: qHTS Assay for Lipid Storage Modulators in Drosophila S3 Cells;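 as to cell number change: cells counted by Cell Tracker Red CMTPX staining in the red channel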
Conditions: BODIPY lipid droplet fluorescence, 18-24 h; for cell number change: measured here: cell count max response, cells fed with added oleic acid
Outline: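 Drosophila S3 cells got compounds at several concentrations plus oleic acid (400 uM solution). Laser-scanning cytometry with 488 nm excitation read lipid droplets at 500-530 nm and cells at 575-640 nm. Percent activity was relative to 20 uM Triacsin C.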

[1] = measured here: lipid fluorescence (Fed channel) AC50, cells fed with added oleic acid
[2] = measured here: cell number channel AC50, cells fed with added oleic acid

SMILES	cell number change [%]	AC50 [1]	AC50 [2]
O=[N+]([O-])c1cc(/C=N\Nc2ccccn2)ccc1Cl	-3.57	6.51 µM [rising, single point]	–
COc1ccc(CCNC(=O)CCNS(=O)(=O)c2cccc3nonc23)cc1OC	67.3	4.61 µM [rising, single point]	20.6 µM [rising, partial curve]
COc1ccccc1CNC(=O)COC(=O)Cn1cnc2ccccc21	-39.1	–	8.2 µM [falling, partial curve]
CC1CCCCC1NC(=O)CN(C)S(=O)(=O)c1cccc2cccnc12 (stereo not given)	37.8	23.1 µM [rising, single point]	18.4 µM [rising, single point]
CN(Cc1cccs1)C(=O)CCc1ccc(S(=O)(=O)N2CCOCC2)cc1	–	–	0.58 µM [falling, single point]
COC(=O)C1=C(N)N(c2ccc(F)cc2)C2=C(C(=O)CCC2)C1c1ccc2c(c1)OCO2 (stereo not given)	7.42	0.00731 µM [rising, full curve, poor fit]	–
CC1CC(C)CN(CCCNC(=O)c2cc3c(=O)[nH]c4ccccc4c3n2C)C1 (stereo not given)	-28.5	0.517 µM [falling, full curve]	–
CC1CN(S(=O)(=O)c2cccc(C(=O)Nc3ccc(S(=O)(=O)Nc4ncccn4)cc3)c2)CC(C)O1 (stereo not given)	28.2	–	0.461 µM [falling, full curve, poor fit]
CCN(CC)S(=O)(=O)c1ccc(NN=c2c(=O)c3ccccc3c2=O)cc1	23.4	3.66 µM [falling, partial curve, poor fit]	–
Cc1ccccc1N(C(=O)CCC(=O)Nc1ccccn1)C(C(=O)NC(C)C)c1ccc(O)cc1 (stereo not given)	23.4	0.116 µM [rising, single point]	–
Cc1ccccc1CNC(=O)C(=O)NCCC1CCCCN1S(=O)(=O)c1ccccc1 (stereo not given)	–	2.91 µM [falling, partial curve, poor fit]	–
CCOC(=O)C1=C(C)NC2=C(C(=O)c3ccccc32)C1c1ccc(O)cc1 (stereo not given)	1.21	0.517 µM [rising, full curve]	–
COCCNC(=O)c1ccccc1-c1nc(-c2ccccc2OC)no1	8.89	–	–
O=C1C=C(NCC2CCCO2)CC(c2ccccc2)C1 (stereo not given)	-1.75	0.411 µM [falling, full curve, poor fit]	–
O=C(CSc1nccc(=O)[nH]1)NCc1ccc2c(c1)OCO2	32.6	0.82 µM [rising, single point]	29.1 µM [rising, single point]
COC(=O)c1cccc(N2C(=O)c3ccccc3S2(=O)=O)c1	-1.36	–	–
O=C(CCc1ccccc1)NNC(=O)COc1ccccc1Cl	3.95	–	–
CN1CCC(N(C)C(=O)c2ccc(Cl)c(S(=O)(=O)N3CCOCC3)c2)CC1	–	6.51 µM [falling, single point]	–
CCOC(=O)N/N=C\c1ccc(OC(=O)c2ccco2)cc1	-40	–	32.6 µM [falling, single point]
C=CCNC(=O)NC(=S)c1ccccc1	17.1	3.26 µM [rising, single point]	–

Entries of single compounds as entered above.
COC(=O)c1cccc(N2C(=O)c3ccccc3S2(=O)=O)c1 as listed: cell number change [%]: -1.36
Cc1ccccc1N(C(=O)CCC(=O)Nc1ccccn1)C(C(=O)NC(C)C)c1ccc(O)cc1 (stereo not given) as listed: cell number change [%]: 23.4; AC50 [1]: 0.116 µM [rising, single point]

Further records follow:

SMILES	cell number change [%]	AC50 [1]	AC50 [2]
CCn1c(=O)cc(OCC(=O)Nc2nc(C)cs2)c2ccccc21	47.3	–	7.31 µM [rising, single point]
NC1=NC(=O)/C(=C/c2c(OS(=O)(=O)c3ccc(Cl)cc3)ccc3ccccc23)S1	48.1	25.9 µM [rising, single point]	14.6 µM [rising, partial curve]
COC(=O)c1[nH]c2ccccc2c1NC(=O)CN1CCCCCC1	-43.3	0.00461 µM [rising, full curve, poor fit]	8.2 µM [falling, partial curve, poor fit]
O=C(Nc1ccc(F)cc1)NC1CCCCC1	–	0.82 µM [falling, full curve]	–
Brc1c(C[n+]2ccccc2)nc2ccccn12	7.13	2.59 µM [rising, single point]	6.51 µM [rising, single point]
CCCNC(=S)NCc1ccc(Cl)cc1	-4.6	–	5.17 µM [falling, single point]
COc1ccc(NC(=O)CSc2nc3ccccc3c(=O)n2CCCN2CCOCC2)c(OC)c1	-17.5	0.013 µM [falling, full curve, poor fit]	–
CN(CC(=O)Nc1ccccc1Cl)C(=O)c1ccc(N2C(=O)CCC2=O)cc1	-6.73	1.46 µM [falling, full curve]	–
COC(=O)C1=C(C)NC(=S)NC1c1ccc(-c2ccccc2C(=O)OC)o1 (stereo not given)	34.1	–	5.17 µM [rising, full curve, poor fit]
CCCCc1ccc(NC(=S)NCc2ccccc2OC)cc1	-45.4	29.1 µM [falling, single point]	14.6 µM [falling, single point]
CC(C)c1cccc(C(C)C)c1NC(=O)CN1CCCC1	-2.25	6.51 µM [rising, single point]	–
CCc1ccc(N2CC(C(=O)OCC(=O)Nc3ccc(C#N)cc3)CC2=O)cc1 (stereo not given)	-11.2	2.31 µM [rising, full curve]	–
N#Cc1ccc(OCC(=O)Nc2nc(-c3ccncc3)cs2)cc1	1.97	–	–
O=C(c1ccccc1)c1sc(N2CCOCC2)nc1-c1ccccc1	34.2	–	0.326 µM [rising, full curve, poor fit]
CCc1ccccc1NC(=O)C1CCCN1C(=O)NCc1ccccc1 (stereo not given)	2.25	0.58 µM [falling, single point]	–
CCn1c(/C=C2/C(=O)N(C)c3ccccc32)nc2ccccc2c1=O	-59.1	–	14.6 µM [falling, partial curve, poor fit]
CCN(CC)CCCNC(=S)N(CCO)Cc1cc2cc3c(cc2[nH]c1=O)OCO3	–	6.51 µM [falling, single point]	–
CCCN1CCN(CC(=O)Nc2nnc(CC)s2)CC1	8.79	–	–
CCC(=O)Nc1ccc(C(=O)NNC(=O)c2ccc([N+](=O)[O-])cc2)cc1	26.8	0.58 µM [rising, single point]	–
